Measured values as given in paper PMC7819943, “Rice protein-binding microarrays: a tool to detect cis-acting elements near promoter regions in rice”.
Some of the results follow.

Amino acid sequences for entries named in this document (tags omitted).
UniProt Q0JBA9, entry or part of it: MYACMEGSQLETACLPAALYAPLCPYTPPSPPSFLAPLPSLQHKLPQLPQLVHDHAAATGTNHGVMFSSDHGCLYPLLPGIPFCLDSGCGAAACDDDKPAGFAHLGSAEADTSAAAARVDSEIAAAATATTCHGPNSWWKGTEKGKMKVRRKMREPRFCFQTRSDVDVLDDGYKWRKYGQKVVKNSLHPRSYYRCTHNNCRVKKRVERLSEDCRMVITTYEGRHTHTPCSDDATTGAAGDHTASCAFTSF

Target: OsWRKY34 (Oryza sativa, UniProt Q0JBA9 1-250)
Assay: protein-binding microarray (RPBM); PBS, 2% BSA, 51.3 ng/ul salmon testes DNA, 50 uM zinc acetate, 200 nM TF, 25 C, 1 h; high values mean tight binding
Conditions: protein: recombinant; tags: N-terminal polyhistidine and DsRed monomer fusion (pET32a); label: CyDye5-dUTP incorporated in the synthesized complementary strand; 3' TTTTT single-stranded linker to array surface; dsDNA, one strand shown
How it was run: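 Transcription factors were each fused at the N-terminus to a polyhistidine tag plus DsRed and expressed in E. coli BL21-CodonPlus before Ni–NTA purification. Binding to a double-stranded custom Agilent array was carried out with 200 nM protein at 25 °C for 1 h in PBS, 2% BSA, salmon testes DNA and 50 µM zinc acetate. The binding signal is per-feature fluorescence intensity, in arbitrary units, on an Axon 4000B scanner.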

Sequence | binding signal
CCGCGGTGGGGCATGGTGGTGAGGTGGGAGGGAGGGAGCTCGGAGTCACCTAGTGCAG | 17100 fluorescence intensity (a.u.)
GACTCCTCGGCCACCTCCTTCCGCTGCGCCACCGCCGCCGCGGAGTCACCTAGTGCAG | 9600 fluorescence intensity (a.u.)
TAGTTTAGCATTATCGTGTTCTCTCTGGAAGCAGTTCTTCCGGAGTCACCTAGTGCAG | 9410 fluorescence intensity (a.u.)
CCACCGCCGCCGCTTCCCCGCCCGCCGGCCGCCTACGCCACGGAGTCACCTAGTGCAG | 8650 fluorescence intensity (a.u.)
CACTAGTTTGTGAATCTGTTATCTTGTTCCTTTTTTACCTCGGAGTCACCTAGTGCAG | 11200 fluorescence intensity (a.u.)
CTCCGCACAAACACACATATACTCCACATATCCAGCTGCACGGAGTCACCTAGTGCAG | 8990 fluorescence intensity (a.u.)
CTTCCAGGGCCTCTTCCACACCCCGCCCCAGCACAACCCGCGGAGTCACCTAGTGCAG | 9690 fluorescence intensity (a.u.)
TTGCATATAACTATGTTGTACCTCCTCCGTTTCATATTACCGGAGTCACCTAGTGCAG | 8460 fluorescence intensity (a.u.)
AGTTATTTGGAGCATTCTTCAGTTCGTCCATCTAGCCTGACGGAGTCACCTAGTGCAG | 10600 fluorescence intensity (a.u.)
CCAACAACGCTCCATCTCTCACTTGCCTCAAATGCAACTACGGAGTCACCTAGTGCAG | 8820 fluorescence intensity (a.u.)
GGTATTTTTGCTAGTCAAGTTTTATTATTTTACTTGACAACGGAGTCACCTAGTGCAG | 9980 fluorescence intensity (a.u.)
TTGGCTTATGAGTTATGTTCTGCCATTTGTACGTATTACACGGAGTCACCTAGTGCAG | 10500 fluorescence intensity (a.u.)
AGTTAATTAGCACCCCTGTGGCTACCATCGATCTGTCTAACGGAGTCACCTAGTGCAG | 10800 fluorescence intensity (a.u.)
GTGCTGCCGCGTTCAATTCGCCGCTGCTTGGTCTCGTTTGCGGAGTCACCTAGTGCAG | 8610 fluorescence intensity (a.u.)
CCTCGTCGTCGTCCTCGTCGTTCCGCCGCGGCGGTAGCAACGGAGTCACCTAGTGCAG | 8090 fluorescence intensity (a.u.)
TTGTTGTTTACGTATTTCATATCTCTAAAAATATTTTTTACGGAGTCACCTAGTGCAG | 10500 fluorescence intensity (a.u.)
CACCACCGCGCCGCCACGCGACAAACCCCGCGGAGGCAGACGGAGTCACCTAGTGCAG | 8060 fluorescence intensity (a.u.)
AATTAGCTCGATCATCACACTGTATATGTTTGTATGTCCTCGGAGTCACCTAGTGCAG | 8650 fluorescence intensity (a.u.)
CCGCGTCACTGGCTGAGAGCGCCATTAATTCACTCTCGTTCGGAGTCACCTAGTGCAG | 8410 fluorescence intensity (a.u.)
GGGTTTCTTCATGCTCCTTGTCAGCCCATCACTTCTACTACGGAGTCACCTAGTGCAG | 13200 fluorescence intensity (a.u.)
GTAGTGGCTAGGAGCTATATTGGTTGGGGAGGAGCGCCCACGGAGTCACCTAGTGCAG | 9340 fluorescence intensity (a.u.)

Quoted at random: four records from the list.
Sequence | binding signal
GGTATTTTTGCTAGTCAAGTTTTATTATTTTACTTGACAACGGAGTCACCTAGTGCAG | 9980 fluorescence intensity (a.u.)
TAGTTTAGCATTATCGTGTTCTCTCTGGAAGCAGTTCTTCCGGAGTCACCTAGTGCAG | 9410 fluorescence intensity (a.u.)
GTGCTGCCGCGTTCAATTCGCCGCTGCTTGGTCTCGTTTGCGGAGTCACCTAGTGCAG | 8610 fluorescence intensity (a.u.)
AATTAGCTCGATCATCACACTGTATATGTTTGTATGTCCTCGGAGTCACCTAGTGCAG | 8650 fluorescence intensity (a.u.)

(further entries)

Sequence | binding signal
GTCGGGGAGGTCGGGGTCAGGGAGGTCGGGGCCGGTGATGCGGAGTCACCTAGTGCAG | 18900 fluorescence intensity (a.u.)
TATCTATCACCACTTTCTGTACTGCTATTGTTGTTCTTACCGGAGTCACCTAGTGCAG | 12400 fluorescence intensity (a.u.)
TCACTGATTACAGGCACTCCTCTCCGATCCAACATAATTACGGAGTCACCTAGTGCAG | 8430 fluorescence intensity (a.u.)
ATTTGTCTCTTGTGCCTTACATGATATATGCATGTTTTTTCGGAGTCACCTAGTGCAG | 12800 fluorescence intensity (a.u.)
TAGTGTTAGTTACTACTCCTACAATTTCATTTGTTGCCACCGGAGTCACCTAGTGCAG | 8650 fluorescence intensity (a.u.)
CACCGCCACGCGTATTTCCGGCCCAAACCAGCCCAACTGCCGGAGTCACCTAGTGCAG | 9480 fluorescence intensity (a.u.)
CTGTTGGCACTTACACAATCACATTCACATTTGGTGTTTTCGGAGTCACCTAGTGCAG | 8630 fluorescence intensity (a.u.)
ACCTCTCATATACCACCATCTCTGCATGCTCAAGAACATCCGGAGTCACCTAGTGCAG | 8270 fluorescence intensity (a.u.)
AGCCTCATCTTTTTCTTATACTTAAATTTGACTTTTTAATCGGAGTCACCTAGTGCAG | 10500 fluorescence intensity (a.u.)
TCTCGGCAAGACCCACCACATACCATGTCCTATACGAAAGCGGAGTCACCTAGTGCAG | 12700 fluorescence intensity (a.u.)
ATCAGCCCATATCGATTTTTACTGCTAGTATTTATTTGAGCGGAGTCACCTAGTGCAG | 8080 fluorescence intensity (a.u.)
TTCGTATTACTGCTTGTACTCGATATAAATTTCATAAAAACGGAGTCACCTAGTGCAG | 9400 fluorescence intensity (a.u.)
ACGCAGAATTCTGAGGTGGTTGTTTCTTGGATCGATCCTTCGGAGTCACCTAGTGCAG | 8180 fluorescence intensity (a.u.)
CCACTTAATTTTCCGAATCTATGGGCTTTGTTGTGCTATACGGAGTCACCTAGTGCAG | 9370 fluorescence intensity (a.u.)
GTACTTCCCACGGCCCATTTTGAAGCCATTAGGCCCAGAACGGAGTCACCTAGTGCAG | 8060 fluorescence intensity (a.u.)
TCGACCTTTTCAGCATTACTAGTTTACTACCTTTTCTTATCGGAGTCACCTAGTGCAG | 9620 fluorescence intensity (a.u.)
AGGCCATCATCACTTTAGTCTTATTTTCGTCACCATCATCCGGAGTCACCTAGTGCAG | 10300 fluorescence intensity (a.u.)
CAGCCGTCCGATCTGTTGATCCAACGACTCAAAAGCGATCCGGAGTCACCTAGTGCAG | 8400 fluorescence intensity (a.u.)
CCATATCATATTACTCCTACATGTGTACTACATTTATATTCGGAGTCACCTAGTGCAG | 9480 fluorescence intensity (a.u.)
TACATTTGACAAAACGCATGAGGACCTCATCATTGCTTAACGGAGTCACCTAGTGCAG | 8020 fluorescence intensity (a.u.)
GAGCGGTCAAACATATGCTAAAAAGTCAACGGCGTCAAACCGGAGTCACCTAGTGCAG | 15900 fluorescence intensity (a.u.)
